Measured values: patent US20220110862A1, “TREATMENT OF COGNITIVE DYSFUNCTION WITH PYRROLOPYRIDINE-ANILINE COMPOUNDS” (NFlection Therapeutics, Inc., priority 2020, published 2022)
At least one read-out could not be matched to a standard name with certainty.

Columns and labels:
[1] = Plasma concentration of Compound 1.003 after single intranasal administration of nasal formulation Ex. A (LC-MS/MS); type: in vivo, Mouse; conditions: female athymic mice, single intranasal 50 μL Ex. A; first time point
Procedure: (§1) This study was conducted to investigate the potential for Compound 1.003 to penetrate into the brain following a single intranasal administration of a nasal formulation including the compound. Compound 1.003 was formulated at a dose strength of 2.3% according to Ex. A of Example 1.
(§2) A single group of female athymic mice each received a single intranasal administration of Compound 1.003. At intervals post dose the animals were sacrificed and samples of blood and brain were collected. The concentration of Compound 1.003 was determined in plasma and brain; and samples of brain were used for determination of the expression of phosphor-ERK (p-ERK). […]
(§3) Overview: A single group of 12 athymic female mice each received a single intranasal administration of Compound 1.003 (Ex. A nasal formulation of Example 1). […] The concentration of Compound 1.003 was determined in plasma and brain by liquid chromatography with tandem mass spectrometry (LC-MS/MS) and the expression of p-ERK was determined in brain samples. […]
(§4) Bioanalytical Methods: Bioanalysis of […] plasma and brain samples for Compound 1.003 was performed using the LC-MS/MS analysis. […] Plasma samples were analyzed undiluted against a plasma standard curve (10 standards between 0.5 to 5000 ng/mL). […] Homogenised samples were then diluted 2× into plasma and then analysed against the plasma standard curve (final dilution 10×). […]

[2] = Brain concentration and brain:plasma ratio of Compound 1.003 after single intranasal administration of nasal formulation Ex. A (LC-MS/MS); type: in vivo, Mouse; conditions: female athymic mice, single intranasal 50 μL Ex. A, post dose
Procedure: as §1, §2, §3, §4

With `Cn1c(Nc2ccc(I)cc2F)c(C(=O)NOCCO)c2cccnc21` [Compound 1.003, 2-((2-fluoro-4-iodophenyl)amino)-N-(2-hydroxyethoxy)-1-methyl-1H-pyrrolo[2,3-b]pyridine-3-carboxamide] the “time of maximum plasma concentration (Cmax)” value [1] was 15 min and the “time of Cmax in the brain” value [2] was 0.5 h.
